PubChem BioAssay AID602196 – INSERM | 2012

Assay: 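Modifiers of cisplatin sensitivity in A549 cells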
System: human A549 lung cancer cells
Knock-down reagent: siRNA pair against human genes
Timing: 48 h transfection before cisplatin; time from cisplatin to read-out not stated
Challenge: cisplatin at a dose killing half of control-siRNA cells; exact dose and duration not given
Read-out: 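Shift in cisplatin death relative to control siRNA, from -50 (all cells die) to +50 (no cells die); siRNAs harmful on their own scored 0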
Reading the numbers: two-siRNA summed score (-2 to +2): higher = both siRNAs protect from cisplatin killing; -2 means both sensitise; mean protection from cisplatin (shift in death): higher = protection from cisplatin killing
Rule for the call: 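siRNAs harmful alone (LDH or WST-1) get 0; others get +1 for less and -1 for more cisplatin killing; genes are active when the two siRNAs give the same sign, summing to ±2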
Meaning of the calls: active = both siRNAs shift cisplatin killing the same way; inactive = no consistent shift, or siRNA harmful alone
Shown is an unselected part of about 23,000 deposited reagents. 455 of them (2%) were called active. 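Active includes both protection and sensitisation; some change values fall well beyond the stated -50 to +50 range.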 A number with no mark means an inactive call. Not all columns of the deposit are shown. The record does not give: the amount of reagent.

What did the screen give for TRAF1 (TNF receptor associated factor 1) [SID131502470]?
two-siRNA summed score (-2 to +2): -1; mean protection from cisplatin (shift in death) (%): -2

With MREG (melanoregulin) [SID131504506], how do the results read?
two-siRNA summed score (-2 to +2): 0; mean protection from cisplatin (shift in death) (%): -5.2

For DNASE1L1 (deoxyribonuclease 1 like 1) [SID131510703], what was measured?
two-siRNA summed score (-2 to +2): 0; mean protection from cisplatin (shift in death) (%): 3.5

With ZZZ3 (zinc finger ZZ-type containing 3) [SID131506936], what was measured?
two-siRNA summed score (-2 to +2): 0; mean protection from cisplatin (shift in death) (%): -0.8

Which result is listed for PRPF39 (pre-mRNA processing factor 39) [SID131505986]?
two-siRNA summed score (-2 to +2): 0; mean protection from cisplatin (shift in death) (%): -2.2

For SPSB3 (splA/ryanodine receptor domain and SOCS box containing 3) [SID131523167], what was measured?
two-siRNA summed score (-2 to +2): 2 (active); mean protection from cisplatin (shift in death) (%): 22.8

Which result is listed for LOC390688 [SID131515945]?
two-siRNA summed score (-2 to +2): 0; mean protection from cisplatin (shift in death) (%): 9.9

Which result is listed for SHMT2 (serine hydroxymethyltransferase 2) [SID131500785]?
two-siRNA summed score (-2 to +2): -1; mean protection from cisplatin (shift in death) (%): -16

For CD44 (CD44 molecule (IN blood group)) [SID131522385], how do the results read?
two-siRNA summed score (-2 to +2): 1; mean protection from cisplatin (shift in death) (%): 18.1

With MRPS22 (mitochondrial ribosomal protein S22) [SID131517197], how do the results read?
two-siRNA summed score (-2 to +2): 0; mean protection from cisplatin (shift in death) (%): 12.7

With HAPLN3 (hyaluronan and proteoglycan link protein 3) [SID131508977], what was measured?
two-siRNA summed score (-2 to +2): 0; mean protection from cisplatin (shift in death) (%): 1.7

For LOC440588 [SID131515795], how do the results read?
two-siRNA summed score (-2 to +2): 0; mean protection from cisplatin (shift in death) (%): 9.7

What is on record for RABL2B (RAB, member of RAS oncogene family like 2B) [SID131502966]?
two-siRNA summed score (-2 to +2): 0; mean protection from cisplatin (shift in death) (%): -17.1

How did the screen score CCDC9 (coiled-coil domain containing 9) [SID131513499]?
two-siRNA summed score (-2 to +2): 0; mean protection from cisplatin (shift in death) (%): 6.7

What did the screen give for ZNF597 (zinc finger protein 597) [SID131504592]?
two-siRNA summed score (-2 to +2): 0; mean protection from cisplatin (shift in death) (%): -5

Part of the list above, showing only “two-siRNA summed score (-2 to +2)”.
RABL2B (RAB, member of RAS oncogene family like 2B) [SID131502966]: 0
CCDC9 (coiled-coil domain containing 9) [SID131513499]: 0
ZNF597 (zinc finger protein 597) [SID131504592]: 0

Further entries follow:
What did the screen give for MRPS31 (mitochondrial ribosomal protein S31) [SID131501990]?
two-siRNA summed score (-2 to +2): -1; mean protection from cisplatin (shift in death) (%): -6

Which result is listed for EFNB1 (ephrin B1) [SID131520717]?
two-siRNA summed score (-2 to +2): 1; mean protection from cisplatin (shift in death) (%): 10.9

With C22orf46P (chromosome 22 open reading frame 46, pseudogene) [SID131520253], what was measured?
two-siRNA summed score (-2 to +2): 1; mean protection from cisplatin (shift in death) (%): 9.2

What is on record for CNPY3 (canopy FGF signaling regulator 3) [SID131505991]?
two-siRNA summed score (-2 to +2): 0; mean protection from cisplatin (shift in death) (%): -2.2

What is on record for LRRC74BNL (LRRC74B N-terminal like) [SID131507239]?
two-siRNA summed score (-2 to +2): 0; mean protection from cisplatin (shift in death) (%): -0.4

How did the screen score LOC441744 [SID131519701]?
two-siRNA summed score (-2 to +2): 1; mean protection from cisplatin (shift in death) (%): 7.1

For ADAT1 (adenosine deaminase tRNA specific 1) [SID131521760], how do the results read?
two-siRNA summed score (-2 to +2): 1; mean protection from cisplatin (shift in death) (%): 14.8

What did the screen give for TIMM17A (translocase of inner mitochondrial membrane 17A) [SID131508139]?
two-siRNA summed score (-2 to +2): 0; mean protection from cisplatin (shift in death) (%): 0.7

With AGO3 (argonaute RISC catalytic component 3) [SID131522948], what was measured?
two-siRNA summed score (-2 to +2): 2 (active); mean protection from cisplatin (shift in death) (%): 13.7

How did the screen score SAGE4P (sarcoma antigen 4, pseudogene) [SID131516932]?
two-siRNA summed score (-2 to +2): 0; mean protection from cisplatin (shift in death) (%): 12

How did the screen score IFNL2 (interferon lambda 2) [SID131521394]?
two-siRNA summed score (-2 to +2): 1; mean protection from cisplatin (shift in death) (%): 13.3

Which result is listed for ICAM2 (intercellular adhesion molecule 2) [SID131517785]?
two-siRNA summed score (-2 to +2): 0; mean protection from cisplatin (shift in death) (%): 14.8

With ASPNAT (aspartate N-acetyltransferase) [SID131511319], what does the deposit list?
two-siRNA summed score (-2 to +2): 0; mean protection from cisplatin (shift in death) (%): 4.2

How did the screen score LOC202546 [SID131522910]?
two-siRNA summed score (-2 to +2): 1; mean protection from cisplatin (shift in death) (%): 40.8

With RAD54L (RAD54 like) [SID131519282], how do the results read?
two-siRNA summed score (-2 to +2): 1; mean protection from cisplatin (shift in death) (%): 4.5

How did the screen score CCS (copper chaperone for superoxide dismutase) [SID131507081]?
two-siRNA summed score (-2 to +2): 0; mean protection from cisplatin (shift in death) (%): -0.6
